Values quoted from earlier work, collected in patent US8759069B2, “Contaminant control in Zymomonas fermentation using hop acids” (priority 2012, dated 2014).
At least one compound was matched to its structure with a doubt left.

Tested on: Zymomonas mobilis strain ZM4
Details: antibiotic concentrations that are safe to use with yeast

For `NC[C@H]1O[C@H](O[C@H]2[C@H](O)[C@@H](O[C@H]3O[C@H](CO)[C@@H](O)[C@H](N)[C@H]3O)[C@H](N)C[C@@H]2N)[C@H](O)[C@@H](O)[C@@H]1O` [kanamycin], the “effect on Zymomonas mobilis strain ZM4” value is listed as “inhibitory to growth”.

In the case of `CN(C)[C@@H]1C(O)=C(C(N)=O)C(=O)[C@@]2(O)C(O)=C3C(=O)c4c(O)cccc4[C@@](C)(O)[C@H]3C[C@@H]12` [tetracycline], the “effect on Zymomonas mobilis strain ZM4” value is listed as “inhibitory to growth”.
